The other results are listed elsewhere or left out. Further columns of the screen follow, without active or inactive calls. Most of these compounds were active or inconclusive in the main read-out, so they are no random draw. Words in brackets tell the shape of the fitted curve; partial curves, single points and poor fits give uncertain potencies.
Test: S16 Schwann cell PMP22 intronic element beta-lactamase assay (AID 624044)
Details: S16 rat Schwann cells, PMP22 element beta-lactamase FRET, 24 h; measured here: 460 nm blue channel
How it was run: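 Rat S16 Schwann cells with beta-Lac driven by a PMP22 intronic element, compound-treated 24 h at 37 °C. LiveBLAzer FRET B/G read: 460 nm normalized to potassium clavulanate vs DMSO; 535 nm FRET as viability; concentration-effect curves classified.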

| SMILES | AC50 |
| --- | --- |
| CC[C@@]12CCCN3CCc4c(n(c5ccccc45)[C@](O)(C(=O)OC)C1)C32 (stereo partly drawn) | 1.26 µM [falling, full curve, poor fit] |
| C[C@]12CC[C@H]3c4ccc(O)cc4CC[C@@H]3[C@H]1CC[C@@H]2OP(=O)(O)O | 5.01 µM [falling, partial curve, poor fit] |
| CN(C)CC[C@@](O)(c1ccccc1)c1ccccc1Cl | 12.6 µM [falling, single point] |
| CC(C)COC(=O)OCN1C(=O)CN(CCN2CC(=O)N(COC(=O)OCC(C)C)C(=O)C2)CC1=O | 17.8 µM [falling, single point] |
| CC(=O)[C@]1(O)Cc2c(O)c3c(c(O)c2[C@@H](O[C@H]2C[C@H](N)[C@H](O)[C@H](C)O2)C1)C(=O)c1c(O)cccc1C3=O | 0.199 µM [falling, full curve] |
| CC1(C)CC1C(=O)N/C(=C/CCCCSCC(N)C(=O)O)C(=O)O (stereo not drawn) | 8.91 µM [falling, partial curve, poor fit] |
| O=C(O)C1=C(CSc2nnnn2CS(=O)(=O)O)CS[C@@H]2[C@H](NC(=O)[C@H](O)c3ccccc3)C(=O)N12 | 1.78 µM [falling, full curve, poor fit] |
| NS(=O)(=O)c1cc(C(=O)O)cc(N2CCCC2)c1Oc1ccccc1 | 0.0848 µM [falling, full curve, poor fit] |
| CCCCCCCCCCCC(=O)OCC(O)C1OCC(O)C1O (stereo not drawn) | 3.98 µM [falling, full curve, poor fit] |
| C[C@](N)(Cc1ccc(O)cc1)C(=O)O | 25.1 µM [rising, single point] |
| C=C1NC(=O)c2cc(CN(C)c3ccc(C(=O)N[C@@H](CCC(=O)O)C(=O)O)s3)ccc2N1 | 0.00631 µM [falling, full curve] |
| COc1cc(NS(=O)(=O)c2ccc(N)cc2)ncn1 | 4.77 µM [falling, partial curve] |
| O=C(NNCS(=O)(=O)O)c1ccncc1 | 7.07 µM [falling, full curve] |
| O=C(NC1CCN(CCc2c[nH]c3ccccc23)CC1)c1ccccc1 | 25.1 µM [rising, single point] |
| N=C(N)c1ccc(/C=C/c2ccc(C(=N)N)cc2O)cc1 | 12.6 µM [falling, single point] |
| C/C1=C2N=C(/C=C3N=C(/C(C)=C4\[N-]C(C)(C5N=C1C(C)(CCC(=O)NCC(C)OP(=O)([O-])O[C@H]1C(O)C(n6cnc7cc(C)c(C)cc76)O[C@@H]1CO)C5CC(N)=O)C(C)(CC(N)=O)C4CCC(N)=O)C(C)(CC(N)=O)C\3CCC(N)=O)C(C)(C)C/2CCC(N)=O.[CH2-]C1OC(n2cnc3c(N)ncnc32)C(O)C1O.[Co] (stereo partly drawn) | 9.99 µM [falling, partial curve, poor fit] |
| CN1CCCC(CN2c3ccccc3Sc3ccccc32)C1 (stereo not drawn) | 0.0562 µM [falling, full curve, poor fit] |

Quoted from the results shown for reference:

| SMILES | AC50 |
| --- | --- |
| CN(C)CC[C@@](O)(c1ccccc1)c1ccccc1Cl | 12.6 µM [falling, single point] |
| CC(C)COC(=O)OCN1C(=O)CN(CCN2CC(=O)N(COC(=O)OCC(C)C)C(=O)C2)CC1=O | 17.8 µM [falling, single point] |

Later entries.

| SMILES | AC50 |
| --- | --- |
| COC(=O)C1=C(C#N)NC(C)=C(C(=O)OC(C)C)C1c1cccc([N+](=O)[O-])c1 (stereo not drawn) | 4.46 µM [falling, partial curve, poor fit] |
| O=C(O)c1cn(C2CC2)c2cc(N3CCNCC3)c(F)cc2c1=O | 0.848 µM [falling, full curve, poor fit] |
| O=C1c2cccc3c2[C@@H](CCC3)CN1[C@@H]1CN2CCC1CC2 | 8.91 µM [falling, partial curve] |
| COc1cc(C(=S)N2CCOCC2)ccc1O | 0.0446 µM [falling, full curve, poor fit] |
| C=C1CC[C@H](O)C/C1=C/C=C1\CCC[C@]2(C)[C@@H]([C@H](C)CCCC(C)(C)O)CC[C@@H]12 | 14.1 µM [falling, single point] |
| O=S(c1cc(Cl)cc(Cl)c1O)c1cc(Cl)cc(Cl)c1O | 14.1 µM [falling, single point] |
| C[Se]CC[C@H](N)C(=O)O | 0.0501 µM [falling, full curve, poor fit] |
| O=C(O)COc1ccccc1/C=N/NC(=O)c1ccncc1 | 0.0141 µM [falling, full curve, poor fit] |
| CCN1CCN(C(=O)NC(C(=O)NC2C(=O)N3C(C(=O)O)=C(CSc4nnnn4C)CSC23)c2ccc(O)cc2)C(=O)C1=O (stereo not drawn) | 25.1 µM [falling, single point] |
| CCOC(=O)c1c(N)sc2c1CCN(Cc1ccccc1)C2 | 0.199 µM [falling, full curve, poor fit] |
| CC(=O)Nc1ccc(NC(=S)NC(=O)c2ccc(C(C)(C)C)cc2)cc1 | 5.62 µM [falling, full curve] |
| C[C@@H]1CCC[C@H](C)N1 | 1.9 µM [falling, full curve, poor fit] |
| CC1(C)OC2CC(=O)OC[C@@]23C1CC(=O)[C@]1(C)C3CC[C@@]2(C)C(c3ccoc3)OC(=O)C3O[C@@]321 (stereo partly drawn) | 3.55 µM [falling, full curve, poor fit] |
| C[C@@H]1CC2C3CCC4=CC(=O)C=C[C@]4(C)[C@@]3(F)[C@@H](O)C[C@]2(C)[C@@]1(O)C(=O)COC(=O)c1cccc(S(=O)(=O)O)c1 (stereo partly drawn) | 14.1 µM [falling, partial curve, poor fit] |
| O=C(O[C@H]1CN2CCC1CC2)N1CCc2ccccc2[C@@H]1c1ccccc1 | 0.562 µM [falling, full curve, poor fit] |
| CC1C(=O)CC2C3(C)CCC2(C(C)C(=O)O)C(=O)C13 (stereo not drawn) | 14.1 µM [rising, single point] |

Reference: PubChem BioAssay (NCATS)
